# The list shows a part of the results.
# B1: BT4246 (Bacteroides thetaiotaomicron), Q89ZX5 (protein)
# chain: MGSSHHHHHHENLYFQGHMASDYLDVVPPEQPNIDDAMSSPTRALGFLYSCYGGVSTDLPSAYLGEINSTTDEYVLPYSWNTDGYWGAYAFNTASSTNQDWLWGTTYQYIGQCYLFLQKLENAGSDIASDAEKEQWRAECQFLVAYYHFATLRRYGPIPITDSYIPMDTPTSEYNGRFHFDYCVDWIANQLDEAAKVLPANRTVTNEWGRATSTIAKAVKARLLLYAASPLWNGSFPYPNWQNENFETPGYGKALVSNTYDKSKWERALAACQEALTLATTSGDRELYDDDEYYSRQSLNLPFVPGVADVEDNKEFLKNVMKMRYAVSTRESEGNKEIIWGLSNQFDFYSRYPLRILKKSDGTWHAGYSGVSPTLYTFEHFYTANGKLPEKDLDFTPSSEWFESAGISSREDIIKLNVGREPRFYAWMAFDGGDYGTKFAAGSPLKLEMRNSEMHGYNPSLFNRDHSVTGFLTQKFVDPVTEFYTAGGSTSGTSAPTILFRLAELYLNVAECHAALGNTQEAIDALNPVRERAGIPKLTLADITNNMTIKDWVHNERFVELWNEGHRFFDVRRWAEGAKYFGANKREGLNAEVQSPTFEEFNKRTTVDAPYVWENRMYLNPVFYNEVYKNPQMVQAPGY
# Assays:
# Assay in all cases: glycan array binding signal (z-score within array); higher = stronger binding
# Conditions in all cases: glycan notation: IUPAC condensed, linker removed
# [1] = target: Man(a1-2)Man(a1-3)[Man(a1-2)Man(a1-6)]Man
# Procedure, shortened: (§1)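 The binding signal is a Z-score computed within each array. Data were drawn from 3228 arrays in the Consortium for Functional Glycomics database, restricted to those with a known protein sequence. Scores were averaged over arrays of the same protein sequence at different concentrations or buffers, and over linkers, and negative values can be taken as non-binding.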
# [2] = target: Man(a1-2)Man(a1-3)[Man(a1-2)Man(a1-6)]Man(a1-6)[Man(a1-2)Man(a1-2)Man(a1-3)]Man
# Procedure, shortened: as §1
# [3] = target: Man(a1-2)Man(a1-3)[Man(a1-2)Man(a1-6)]Man(a1-6)[Man(a1-2)Man(a1-2)Man(a1-3)]Man(b1-4)GlcNAc(b1-4)GlcNAc
# Procedure, shortened: as §1
# [4] = target: Man(a1-2)Man(a1-3)[Man(a1-6)]Man(a1-6)[Man(a1-2)Man(a1-3)]Man(b1-4)GlcNAc(b1-4)GlcNAc
# Procedure, shortened: as §1
# [5] = target: Man(a1-2)Man(a1-6)[Man(a1-3)]Man(a1-6)[Man(a1-2)Man(a1-2)Man(a1-3)]Man
# Procedure, shortened: as §1
# [6] = target: Man(a1-2)Man(a1-6)[Man(a1-3)]Man(a1-6)[Man(a1-2)Man(a1-2)Man(a1-3)]Man(b1-4)GlcNAc(b1-4)GlcNAc
# Procedure, shortened: as §1
# Man(a1-3)[Man(a1-6)]Man = target: Man(a1-3)[Man(a1-6)]Man
# Procedure, shortened: as §1
# [7] = target: Man(a1-3)[Man(a1-6)]Man(a1-6)[Man(a1-2)Man(a1-3)]Man(b1-4)GlcNAc(b1-4)GlcNAc
# Procedure, shortened: as §1
# [8] = target: Man(a1-3)[Man(a1-6)]Man(a1-6)[Man(a1-3)]Man
# Procedure, shortened: as §1
# [9] = target: Man(a1-3)[Man(a1-6)]Man(a1-6)[Man(a1-3)]Man(b1-4)GlcNAc(b1-4)GlcNAc
# Procedure, shortened: as §1
# [10] = target: Man(a1-3)[Man(a1-6)]Man(b1-4)GlcNAc(b1-4)GlcNAc
# Procedure, shortened: as §1
# [11] = target: Man(a1-3)[Man(a1-6)]Man(b1-4)GlcNAc(b1-4)[Fuc(a1-6)]GlcNAc
# Procedure, shortened: as §1
# Man(a1-6)Man = target: Man(a1-6)Man
# Procedure, shortened: as §1
# Man(b1-4)GlcNAc = target: Man(b1-4)GlcNAc
# Procedure, shortened: as §1
# MurNAc(b1-4)GlcNAc = target: MurNAc(b1-4)GlcNAc
# Procedure, shortened: as §1
# Neu5Ac(a2-3)Gal = target: Neu5Ac(a2-3)Gal
# Procedure, shortened: as §1
# [12] = target: Neu5Ac(a2-3)Gal(b1-3)GalNAc
# Procedure, shortened: as §1
# [13] = target: Neu5Ac(a2-3)Gal(b1-3)GalNAc(b1-3)Gal(a1-4)Gal(b1-4)Glc
# Procedure, shortened: as §1
# [14] = target: Neu5Ac(a2-3)Gal(b1-3)GalNAc(b1-4)Gal(b1-4)Glc
# Procedure, shortened: as §1
# [15] = target: Neu5Ac(a2-3)Gal(b1-3)GalNAc(b1-4)[Neu5Ac(a2-3)]Gal(b1-4)Glc
# Procedure, shortened: as §1
# [16] = target: Neu5Ac(a2-3)Gal(b1-3)GalNAc(b1-4)[Neu5Ac(a2-8)Neu5Ac(a2-3)]Gal(b1-4)Glc
# Procedure, shortened: as §1
# [17] = target: Neu5Ac(a2-3)Gal(b1-3)GalNAc6S
# Procedure, shortened: as §1
# [18] = target: Neu5Ac(a2-3)Gal(b1-3)GlcNAc
# Procedure, shortened: as §1
# [19] = target: Neu5Ac(a2-3)Gal(b1-3)GlcNAc(b1-2)Man
# Procedure, shortened: as §1
# [20] = target: Neu5Ac(a2-3)Gal(b1-3)GlcNAc(b1-2)Man(a1-3)[GlcNAc(b1-4)][Neu5Ac(a2-3)Gal(b1-3)GlcNAc(b1-2)Man(a1-6)]Man(b1-4)GlcNAc(b1-4)GlcNAc
# Procedure, shortened: as §1
# [21] = target: Neu5Ac(a2-3)Gal(b1-3)GlcNAc(b1-2)Man(a1-3)[Neu5Ac(a2-3)Gal(b1-3)GlcNAc(b1-2)Man(a1-6)]Man(b1-4)GlcNAc(b1-4)GlcNAc
# Procedure, shortened: as §1
# [22] = target: Neu5Ac(a2-3)Gal(b1-3)GlcNAc(b1-2)[Neu5Ac(a2-3)Gal(b1-3)GlcNAc(b1-4)]Man(a1-6)[Neu5Ac(a2-3)Gal(b1-3)GlcNAc(b1-2)Man(a1-3)]Man(b1-4)GlcNAc(b1-4)GlcNAc
# Procedure, shortened: as §1
# [23] = target: Neu5Ac(a2-3)Gal(b1-3)GlcNAc(b1-3)Gal(b1-3)GlcNAc
# Procedure, shortened: as §1
# [24] = target: Neu5Ac(a2-3)Gal(b1-3)GlcNAc(b1-3)Gal(b1-4)GlcNAc
# Procedure, shortened: as §1
# [25] = target: Neu5Ac(a2-3)Gal(b1-3)GlcNAc(b1-3)GalNAc
# Procedure, shortened: as §1
binder,measurement,setting,value
B1,glycan array binding signal (z-score),[1],0.5
same,glycan array binding signal (z-score),[2],0.173
same,glycan array binding signal (z-score),[3],-0.169
same,glycan array binding signal (z-score),[4],0.406
same,glycan array binding signal (z-score),[5],-1.24
same,glycan array binding signal (z-score),[6],1.59
same,glycan array binding signal (z-score),Man(a1-3)[Man(a1-6)]Man,0.477
same,glycan array binding signal (z-score),[7],-0.545
same,glycan array binding signal (z-score),[8],3.62
same,glycan array binding signal (z-score),[9],-0.272
same,glycan array binding signal (z-score),[10],-0.585
same,glycan array binding signal (z-score),[11],-0.828
same,glycan array binding signal (z-score),Man(a1-6)Man,1.9
same,glycan array binding signal (z-score),Man(b1-4)GlcNAc,1.48
same,glycan array binding signal (z-score),MurNAc(b1-4)GlcNAc,-0.881
same,glycan array binding signal (z-score),Neu5Ac(a2-3)Gal,-0.128
same,glycan array binding signal (z-score),[12],-0.605
same,glycan array binding signal (z-score),[13],0.009
same,glycan array binding signal (z-score),[14],0.064
same,glycan array binding signal (z-score),[15],-1.5
same,glycan array binding signal (z-score),[16],-0.003
same,glycan array binding signal (z-score),[17],-0.19
same,glycan array binding signal (z-score),[18],0.325
same,glycan array binding signal (z-score),[19],0.585
same,glycan array binding signal (z-score),[20],-0.625
same,glycan array binding signal (z-score),[21],-0.445
same,glycan array binding signal (z-score),[22],1.75
same,glycan array binding signal (z-score),[23],-0.454
same,glycan array binding signal (z-score),[24],1.07
same,glycan array binding signal (z-score),[25],0.321

# A different layout for some results above:
binder	measurement	setting	value
B1	glycan array binding signal (z-score)	[5]	-1.24
same	glycan array binding signal (z-score)	[24]	1.07
